Source: PubChem BioAssay AID1224830 (NIAID, 2016)
Screen: 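Genes whose knock-down alters the TNF-alpha reporter response to LPS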 (primary screen). Cells: human THP-1 monocytic leukaemia cells, TNF dual-luciferase reporter clone, PMA-differentiated to macrophage-like cells. Reagents: siRNA pool against human genes, 50 nM. Time to read-out: LPS for 4 h, given about 3 days after siRNA transfection. Conditions: bacterial LPS (TLR4 ligand), 10 ng/ml. Detection: 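TNF firefly reporter luminescence divided by renilla, normalised to the plate median, then turned into a robust z-score for each replicate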. Scale: TNF reporter robust z-score: higher = stronger TNF reporter response to LPS. Call rule: 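Each well counts as active if its z-score is over 2.8 or under -1.5; controls are left without a call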.
Shown is a random part of about 18,000 reagents. About 2,900 of them (16%) were called active. 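Calls are made per well; low scores hint the gene aids the LPS response, high scores that it dampens it.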 Repeated entries: four replicate wells of each siRNA pool.

gene symbol	PubChem SID	TNF reporter robust z-score	Call
SPEM1	SID315464328	-0.26	inactive
SPEM1	SID315464328	0.07	inactive
SPEM1	SID315464328	-0.07	inactive
BRD8	SID315454440	-0.34	inactive
BRD8	SID315454440	-1.11	inactive
BRD8	SID315454440	-0.1	inactive
BRD8	SID315454440	-0.25	inactive
HMBOX1	SID315459328	0.69	inactive
HMBOX1	SID315459328	0.02	inactive
HMBOX1	SID315459328	-0.21	inactive
HMBOX1	SID315459328	0.7	inactive
PIF1	SID315459652	1.04	inactive
PIF1	SID315459652	1.46	inactive
PIF1	SID315459652	1.75	inactive
PIF1	SID315459652	1.02	inactive
DPCD	SID315455547	-0.68	inactive
DPCD	SID315455547	-0.73	inactive
DPCD	SID315455547	-0.69	inactive
DPCD	SID315455547	-1.08	inactive
CHAD	SID315447896	0.87	inactive
CHAD	SID315447896	-0.24	inactive
CHAD	SID315447896	-0.14	inactive
CHAD	SID315447896	0.79	inactive
UQCC4	SID315463715	-1.47	inactive
UQCC4	SID315463715	-1.1	inactive
UQCC4	SID315463715	-1.52	active
UQCC4	SID315463715	-0.5	inactive
CANX	SID315447688	-0.96	inactive
CANX	SID315447688	-0.59	inactive
CANX	SID315447688	-0.66	inactive
CANX	SID315447688	-0.48	inactive
FBXW10	SID315454153	-1.65	active
FBXW10	SID315454153	-1.8	active
FBXW10	SID315454153	-0.9	inactive
FBXW10	SID315454153	-0.49	inactive
JADE3	SID315453548	-2.59	active
JADE3	SID315453548	-0.39	inactive
JADE3	SID315453548	-1.5	inactive
JADE3	SID315453548	-0.18	inactive
JUP	SID315449588	-1.52	active
JUP	SID315449588	-1.21	inactive
JUP	SID315449588	-1.76	active
JUP	SID315449588	-1.74	active
FGF20	SID315455760	0.43	inactive
FGF20	SID315455760	1.34	inactive
FGF20	SID315455760	1.09	inactive
FGF20	SID315455760	-0.51	inactive
FCER2	SID315448649	0.34	inactive
FCER2	SID315448649	0.39	inactive
FCER2	SID315448649	0.2	inactive
FCER2	SID315448649	0.14	inactive
BMP1	SID315447559	0.42	inactive
BMP1	SID315447559	0.35	inactive
BMP1	SID315447559	1.87	inactive
BMP1	SID315447559	2.51	inactive
B3GALNT2	SID315462391	-2.16	active
B3GALNT2	SID315462391	-0.21	inactive
B3GALNT2	SID315462391	-2.03	active
B3GALNT2	SID315462391	0.48	inactive
TAPT1	SID315463095	-0.06	inactive
TAPT1	SID315463095	-0.22	inactive
TAPT1	SID315463095	-0.74	inactive
TAPT1	SID315463095	-0.18	inactive
THSD7B	SID315459787	2.06	inactive
THSD7B	SID315459787	1.36	inactive
THSD7B	SID315459787	0.25	inactive
THSD7B	SID315459787	0.34	inactive
PRSS21	SID315454474	-0.3	inactive
PRSS21	SID315454474	1.75	inactive
PRSS21	SID315454474	-0.13	inactive
PRSS21	SID315454474	-0.09	inactive
OR1L3	SID315455845	-0.42	inactive
OR1L3	SID315455845	-0.07	inactive
OR1L3	SID315455845	0.48	inactive
OR1L3	SID315455845	-0.82	inactive
TCF15	SID315451792	0.42	inactive
TCF15	SID315451792	0.45	inactive
TCF15	SID315451792	-0.05	inactive
TCF15	SID315451792	0.34	inactive
SQSTM1	SID315452895	0.01	inactive
SQSTM1	SID315452895	1.17	inactive
SQSTM1	SID315452895	1.23	inactive
SQSTM1	SID315452895	1.41	inactive
CASP2	SID315447702	0.72	inactive
CASP2	SID315447702	-1.28	inactive
CASP2	SID315447702	1.13	inactive
CASP2	SID315447702	-0.36	inactive
RHD	SID315451128	0	inactive
RHD	SID315451128	0.23	inactive
RHD	SID315451128	1.17	inactive
RHD	SID315451128	0.28	inactive
VXN	SID315463463	-0.71	inactive
VXN	SID315463463	-0.26	inactive
VXN	SID315463463	-1.01	inactive
VXN	SID315463463	0.8	inactive
EIF2AK3	SID315453295	-0.75	inactive
EIF2AK3	SID315453295	0.97	inactive
EIF2AK3	SID315453295	-0.86	inactive
EIF2AK3	SID315453295	-0.08	inactive
NDUFS8	SID315450195	0	inactive
NDUFS8	SID315450195	2.56	inactive
NDUFS8	SID315450195	1.86	inactive
NDUFS8	SID315450195	1.26	inactive
CHST7	SID315458085	-0.13	inactive
CHST7	SID315458085	1.07	inactive
CHST7	SID315458085	1.76	inactive
CHST7	SID315458085	1.65	inactive
CSNK1E	SID315448134	-0.3	inactive
CSNK1E	SID315448134	-1.15	inactive
CSNK1E	SID315448134	-0.21	inactive
CSNK1E	SID315448134	-1.06	inactive
